# Assay results reported in PubChem BioAssay AID1259415 (National Center for Advancing Translational Sciences (NCATS), 2018).
# “And” between values parts separate entries of the source, which are not always exact repeats. Identical values can stand only once. In all, about 410,000 compounds went through this assay and about 18,000 (4.4%) were called active. The shares of active, inactive and inconclusive entries below differ from those in the screen. No stated cut-off is given here; in the data, active means activity change below about -60%; inconclusive means no clear call, values can overlap the other calls; inactive means above about -39%.
# Assay: qHTS Assay for inhibitors of the human cytomegalovirus (HCMV)
# Settings: HFF cells, HCMV-luciferase reporter, 72 h; at 57.5 µM; hits give low values
# How it was run: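 Luciferase read-out from HCMV-luciferase-infected HFFs (MOI 1 PFU/cell) 72 h post infection at 37C; compounds added after 16 h cell attachment; activity normalized between buffer-only basal and Salinomycin (10uM) inhibitor controls.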
# On the % scale 0 is the no-effect control and ±100 the full control effect.
row,Compound,"activity change, negative = inhibition"
1,Cc1cccc(C(=O)Nc2sc3c(c2C(=O)O)CCCC3)c1,inactive: 30.2% and inactive: -6.32%
2,Cc1cc2nnc(SCC(=O)NCc3cccs3)n2c2ccccc12,inconclusive: -48.4%
3,O=C(CSc1ccccc1C(=O)O)NC1CCCCCC1,inconclusive: -41.4%
4,COC(=O)c1sc(NC(=O)COc2cccnc2[N+](=O)[O-])c(C(=O)OC)c1C,inactive: 28.8%
5,Cc1cc(C(C)(C)C)cc(C)c1S(=O)(=O)N1CC(=O)Nc2ccccc21,inconclusive: -46.8%
6,O=C(N/N=C\c1cccnc1)c1cc(-c2ccccc2)nc2c(Cl)cccc12,inconclusive: -44.3%
7,C/C=C/c1ccc(OCC(=O)Nc2cc(S(=O)(=O)N3CCOCC3)ccc2N2CCCC2)c(OC)c1,inconclusive: -53.5%
8,CCc1ccc(Nc2nc(N3CCOCC3)nc(N3CCOCC3)n2)cc1,inconclusive: -43.4%
9,CCCNC(=O)CCn1nc(-c2ccc(C)cc2)c2ccccc2c1=O,inconclusive: -43.7%
10,COc1cc(NC(=O)COC(=O)CC(C)(C)C)c(C)cc1[N+](=O)[O-],inconclusive: -45.2%
11,CCN(C(=O)c1cc2c(=O)[nH]c3ccc(C)cc3c2s1)c1ccc(F)cc1,inconclusive: -46.4%
12,O=C1CCCN1c1ccc(S(=O)(=O)NCCc2ccc(Cl)cc2)cc1,inactive: -0.0613%
13,COc1ccc(Br)cc1C(=O)Nc1ccc(O)cc1,inactive: -5.74%
14,CCc1nnc(SCC(=O)NC2CC2)n1CC,inactive: 10.9%
15,CCn1c(SCC(=O)Nc2ccc(C)cc2)nc2sc3c(c2c1=O)CCN(C)C3,inconclusive: -49.2%
16,CC(=O)c1cccc(NS(=O)(=O)c2ccc(C(=O)Nc3ccccc3)cc2)c1,active: -75.8%
17,O=C(N/N=C/c1sc(N2CCCCC2)nc1-c1cccs1)C1CC1,inconclusive: -44.3%
18,COC(=O)CNC(c1ccccc1Cl)c1cc(Br)ccc1NS(=O)(=O)c1ccc(C)cc1 (stereo unspecified),active: -69.7%
19,Cc1oc(-c2ccccc2F)nc1CSCC(=O)NC1CCC(C)CC1 (stereo unspecified),inconclusive: -42.6%

row,Compound,"activity change, negative = inhibition"
1,O=C(c1ccc(COc2ccc(F)cc2)o1)n1cccn1,active: -104%
2,C(=N/Nc1nccs1)/c1cccnc1,inconclusive: -40.7%
3,CCOc1cccc(CNCc2ccncc2)c1,inactive: 25.2%
4,COC(=O)c1c(C)oc(C)c1S(=O)(=O)NCc1cccs1,active: -60.3%
5,OCC1(Cc2ccccc2Cl)CCN(C/C=C/c2ccccc2)CC1,inactive: -29.5%
6,CCCCn1c(=O)c(C=Nc2cc([N+](=O)[O-])ccc2OC)c(O)n(CCCCl)c1=O,inactive: -7.65%
7,Cc1cc(C)c(S(=O)(=O)NCC(c2ccco2)N2CCN(c3ccccc3)CC2)c(C)c1 (stereo unspecified),inactive: 1.97%
8,CC(O)(c1ccccc1)c1nc(-c2cc3ccccc3o2)cs1 (stereo unspecified),inconclusive: -40.7%
9,COc1cccc(-n2cnc3c(sc4nc(N5CCOCC5)c5c(c43)CCCC5)c2=O)c1,inconclusive: -57.9%
10,CCOc1cc(C(=O)N/N=C(\C)Cc2ccc(OC)cc2)cc(OCC)c1OCC,inconclusive: -55.4%
11,COc1ccc(C(=O)Nc2nc3ccccc3s2)c(OC)c1,active: -96.7%
12,Cc1ccc(NC(=O)/C=C/c2ccc3c(c2)OCO3)cc1S(=O)(=O)N1CCOCC1,inconclusive: -51.9%
13,CCCCN(CCCC)C(=O)c1cc2c(=O)n3ccccc3nc2s1,inconclusive: -59.1%
14,Cc1ccc(NC(=O)CCNC(=O)c2ccc([N+](=O)[O-])cc2)cc1S(=O)(=O)N(C)C,inconclusive: -59.3%
16,Cc1cccc(N2CCN(S(=O)(=O)c3ccc(F)c(C(=O)Nc4cccc(Cl)c4C)c3)CC2C)c1 (stereo unspecified),inactive: -15.4%
17,CCCn1nnc(NC(=O)c2ccccc2Cl)n1,inactive: 31.8%
18,Cc1ccccc1-c1nc(NC(=O)CSc2ncnc3sc4c(c23)CCCC4)ns1,inactive: 8.26%
19,O=C(CCc1nnc2ccc(N3CCC4(CC3)OCCO4)nn12)N1CCCCC1,inactive: 33%

row,Compound,"activity change, negative = inhibition"
1,Cc1ccc(C(=O)N/C(=C\c2ccc(-c3ccccc3[N+](=O)[O-])o2)C(=O)NCCCN2CCOCC2)cc1,inactive: 35.5%
2,COC(=O)C1=C(C(=O)OC)C2C=CC1C1C(OC(C)=O)C(OC(C)=O)C21 (stereo unspecified),inconclusive: -49.3%
3,COc1ccc(N2CCc3c(C)nc(SC)nc32)cc1,inconclusive: -58.2%
4,CC(=O)N1CCN(C(=O)Cn2c(=O)oc3ccccc32)CC1,inactive: 15.5%
5,COc1cccc(N2CCN(C(=O)c3cnc4c(C)cccn4c3=O)CC2)c1,inactive: 19.1%
6,COC(=O)c1cc(Br)c(=O)n(CCc2ccc(O)cc2)c1,inconclusive: -45.6%
7,C/C(=N\NC(=O)CCCC(=O)O)c1c(-c2ccccc2)c2cc(Cl)ccc2[nH]c1=O,inconclusive: -42.2%
8,CCN(CC)CCCNC(=O)C1CCC(CNS(=O)(=O)c2ccc(Cl)cc2)CC1 (stereo unspecified),inconclusive: -42.4%
9,CCCCCCCCCC[n+]1cccc2c3ccccc3ccc21,active: -108%
10,CCc1ccc(OCC(=O)NCC(c2ccc(Cl)cc2)N2CCOCC2)cc1 (stereo unspecified),inactive: -10.9%
11,Cc1nc(N)c(Cc2ccc(Cl)cc2Cl)c(N)n1,inconclusive: -58.2%
12,Cc1cc([N+](=O)[O-])cc2c1NCC1CC=CC21 (stereo unspecified),inconclusive: -47.6%
13,CC(C)c1ccc(NC(=O)c2cc3c(=O)oc4ccccc4c3s2)cc1,inconclusive: -49.9%
14,Fc1ccc(NC(=S)N2CCCc3ccccc32)cc1,inconclusive: -50.6%
15,O=C(N/N=C/c1ccc(OCC(=O)N2CCOCC2)cc1)c1ccccc1Cl,inconclusive: -45.9%
16,CCOC(=O)c1cnc2c(OC)cccc2c1NCc1cccnc1,active: -62.3%
17,Cc1c(N=C2SCC(=O)N2/N=C/c2ccccc2)c(=O)n(-c2ccccc2)n1C,inconclusive: -40.2%
18,CC1(C)CC(=O)C(C=NCCN2CCN(C(=O)CC3CCCC3)CC2)=C(O)C1,inactive: 41.2%
